The assay deals with primary human hepatic stellate cells (donor 1). The assay can be described thus: percent Bodipy-positive cells; higher = more lipid droplet accumulation. As to conditions: 48 h.
Where [1] appears, read: library stock concentration: 10 mM.
[2] abbreviates: library stock concentration: 1 mM.
Where [3] appears, read: library stock concentration: 3.33 mM.

The text below walks through data of the supplement of paper PMC9135407.

The structures appear in SMILES notation. “And” between values parts separate entries of the source, which are not always exact repeats. Equal values may be shown once. Where a name gives a salt, the structure may show the parent alone. ± gives the standard deviation of the averaged measurements. The list shows a part of the results. Baselines shift from plate to plate; read single values as rough.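 Primary human stellate myofibroblasts activated in culture; inactivation shown by regained lipid droplets. Readout: fraction of Hoechst-counted cells exceeding a per-plate Bodipy threshold, duplicate wells, each plate with DMSO negative and nortriptyline positive controls. Hits: control-normalized score beyond the plate's top-tenth-percentile nortriptyline wells, or among its three best wells. Final well concentrations unstated.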

Take `COc1cc(OC)c(C(=O)CCCN2CCCC2)c(OC)c1` [Buflomedil hydrochloride]: the “percent Bodipy-positive cells” value is 30 ± 2.8%.
On to `CC(=O)NCCc1c[nH]c2ccc(O)cc12` [N-Acetyl-5-hydroxytryptamine], for which the “percent Bodipy-positive cells” value under setting [1] amounted to 49.9 ± 5.8%.
As for `CC(C)Oc1ccc(Cc2ccc(NC3=NCCN3)cc2)cc1`, the “percent Bodipy-positive cells” value under setting [2] came out at 36.2 ± 13%.
As for `N#CC(c1ccc(Cl)cc1)c1c(Cl)cc(-n2ncc(=O)[nH]c2=O)cc1Cl` (stereo not given) [Diclazuril], the “percent Bodipy-positive cells” value under setting [3] came out at 10.9 ± 6.6%, the “percent Bodipy-positive cells” value (library stock concentration: 4.9 mM) came out at 10.6 ± 4.2% and the “percent Bodipy-positive cells” value under setting [1] was found to be 15.9 ± 3.5%.
Turning to `O=c1ccc2ccc(O)c(O)c2o1` [Daphnetin], the “percent Bodipy-positive cells” value is, setting by setting: under setting [3], 4.58 ± 2.3%; under setting [1], 9.68% and 24.3%.
As for `O.O.O.O.O=C([O-])CC(O)(CC(=O)[O-])C(=O)[O-].[Li+].[Li+].[Li+]` [Lithium citrate], the “percent Bodipy-positive cells” value reads like this: (library stock concentration: 9.5 mM) 12.09 ± 0.021%; under setting [1], 25.1 ± 6.3%.
`Oc1ccc(Cl)c2cccnc12` [Cloxyquin]: the “percent Bodipy-positive cells” value under setting [1] stood at 8.71 ± 1.8%.
For `Nc1c(Br)cc(Br)cc1CN[C@H]1CC[C@H](O)CC1` [Ambroxol HCl], the “percent Bodipy-positive cells” value amounted to 16.9 ± 4.6% under setting [3] and 48.2 ± 4.6% under setting [1].
For the molecule `Nc1c(Br)cc(Br)cc1CN[C@H]1CC[C@H](O)CC1` [Ambroxol hydrochloride], the “percent Bodipy-positive cells” value came out at 42.8 ± 4.4%. The “percent Bodipy-positive cells” value under setting [1] was 36.1% and 35.4%.
For the molecule `Nc1c(Br)cc(Br)cc1CN[C@H]1CC[C@H](O)CC1` [Ambroxol], the “percent Bodipy-positive cells” value (library stock concentration: 5.3 mM) stood at 19.9 ± 2.3%.
Regarding `CC1Nc2ccc(Cl)cc2S(=O)(=O)N1` (stereo not given), the “percent Bodipy-positive cells” value under setting [1] stood at 8.03 ± 3%.
For `OCCN1CCN(CCCN2c3ccccc3Sc3ccc(Cl)cc32)CC1` [Perphenazine], the “percent Bodipy-positive cells” value under setting [1] was found to be 92.5 ± 3.2%.
For the molecule `CCC(=O)c1ccc(O)cc1`, under setting [1], the “percent Bodipy-positive cells” value is 30.4 ± 7%.
In the case of `C=CC(=O)Nc1cccc(Nc2nc(Nc3ccc(N4CCN(C(C)=O)CC4)cc3OC)ncc2C(F)(F)F)c1`, the “percent Bodipy-positive cells” value turned out to be 25.7 ± 9.3% under setting [3] and 48.5 ± 5.8% under setting [1].
Regarding `CS(=O)(=O)CCNCc1ccc(-c2ccc3ncnc(Nc4ccc(OCc5cccc(F)c5)c(Cl)c4)c3c2)o1`, the “percent Bodipy-positive cells” value was 8.63 ± 2.7% (library stock concentration: 80 uM); 15% and 39.9% (library stock concentration: 400 uM); 58.6 ± 10% (library stock concentration: 2 mM); 49.6 ± 5.2% under setting [1].
Take `COC(=O)c1sccc1S(=O)(=O)Nc1ccc(Nc2ccccc2)cc1OC`: the “percent Bodipy-positive cells” value under setting [1] was 12.8 ± 6.5%.
As for `CC(C)(Sc1cc(C(C)(C)C)c(O)c(C(C)(C)C)c1)Sc1cc(C(C)(C)C)c(O)c(C(C)(C)C)c1` [Probucol], the “percent Bodipy-positive cells” value is 27.9 ± 0.75%. Besides, the “percent Bodipy-positive cells” value under setting [3] came out at 9.35 ± 1.6%. Also, the “percent Bodipy-positive cells” value under setting [1] is 11.3% and 31.3%.
With `CCCCCC#CCC#CCCCCCCCC(=O)O` [9,12-Octadecadiynoic Acid], the “percent Bodipy-positive cells” value under setting [2] is 9.85 ± 1.1%.
`CCCCC[C@H](O)/C=C/[C@H]1[C@H](O)CC(=O)[C@@H]1C/C=C\CCCC(=O)NCCO` [Prostaglandin E2 Ethanolamide]: the “percent Bodipy-positive cells” value under setting [2] is 19.9 ± 1.1%.
With `CN1CCc2ccccc2Cc2[nH]c3ccccc3c2CC1`, the “percent Bodipy-positive cells” value under setting [1] was 57.3 ± 5.9%.
With `CCCCCCCCCC(=O)NC(CN1CCOCC1)C(O)c1ccccc1` (racemic), the “percent Bodipy-positive cells” value under setting [2] was 8.8 ± 8.1%.
As to `CCC[C@H](Nc1nc(-c2ccc(NC(=O)NCC)c(OC)c2)ncc1C)c1cccnc1` [CYT997 (Lexibulin)], the “percent Bodipy-positive cells” value was found to be 74.2 ± 15% under setting [3] and 79.64 ± 0.73% under setting [1].
On the same counts, the results for `COC1C(O)CC(=O)OC(C)CC=CC=CC(OC2CCC(N(C)C)C(C)O2)C(C)CC(CC=O)C1OC1OC(C)C(OC2CC(C)(O)C(O)C(C)O2)C(N(C)C)C1O` (stereo not given) [Spiramycin] are 20.05 ± 0.2% and 62.9 ± 3.3%.
Consider `CCCCc1c(-c2ccc(OC)cc2)[nH]c2nccnc12` [Aloisine, RP106], for which the “percent Bodipy-positive cells” value under setting [3] came out at 17.9 ± 5.2%.
Same read-out and setting: then `O=c1cc(N2CCNCC2)oc2c(-c3ccccc3)cccc12`, with 42.3 ± 2.7%.
On to `CC(=O)c1cnc2ccc(-c3cc(Cl)c(O)c(Cl)c3)nc2c1N[C@H]1CC[C@H](CN(C)C)CC1.Cl`, for which the “percent Bodipy-positive cells” value under setting [1] turned out to be 91.1 ± 2.8%.
